Experimental data published in patent publication US20230030886A1, “CHEMOTHERAPEUTIC DRUG IMPLANT” (EXTRUDED PHARMACEUTICALS LTD, priority 2019, published 2023).
For at least one compound, name, drawing or mass did not settle the structure.

Test system: primary GBM cells taken from eight patients with recurrent GBM
Assay: GBM cell cytotoxicity of IRN, TMZ and IRN+PVT, increasing concentrations, 5 days (MTT)
Format: cell-based, human
Description: TMZ, IRN and IRN+PVT were added at increasing concentrations up to 5 log nm to cultured primary GBM cells taken from eight patients with recurrent GBM. After 5 days of exposure an MTT assay was performed to assess % cell viability.

## Cn1nnc2c(C(N)=O)ncn2c1=O [TMZ, temozolomide]
Determined from FIG. 23, 5 days exposure, eight patient lines
  average IC50: did not produce an IC50
Up to 5 log nm, 5 days of exposure
  response of the eight patient cell lines to treatment: did not respond significantly
